The text below walks through data of PubChem BioAssay AID2685 (National Center for Advancing Translational Sciences (NCATS), 2010).

Structures are written as SMILES. The list shows a part of the results. The main result of the screen is listed elsewhere. These columns were measured beside it and carry no call. Compounds called inactive in the main read-out are mostly missing here. The note in brackets gives the kind of curve behind each potency; many fits are weak.

A short description of this assay: qHTS Assay for Lipid Storage Modulators in Drosophila S3 Cells.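 For cell number change: cells counted by Cell Tracker Red CMTPX staining in the red channel.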 The conditions noted are these: BODIPY lipid droplet fluorescence, 18-24 h; for cell number change: measured here: cell count max response, cells fed with added oleic acid. An outline of the steps: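 Drosophila S3 cells loaded with oleic acid (400 uM, as added) and compounds at several concentrations; lipid droplets imaged by 488-nm laser-scanning cytometry, 500–530 nm intensity and object ratio to cell channel. Percent activity normalized to 20 uM Triacsin C.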
In general terms: In qHTS, concentration-response curves come from the screen itself.

[1] abbreviates: measured here: cell number channel AC50, cells fed with added oleic acid.
Setting [2] is: measured here: lipid fluorescence (Fed channel) AC50, cells fed with added oleic acid.

In the case of `CN1C(=O)CSc2ccc(NC(=O)NCCC3=CCCCC3)cc21`, the cell number change is -6.45%. Moreover, the AC50 under setting [1] is 2.31 µM [rising, partial curve]. Also, the half-maximal activity concentration (AC50) under setting [2] was 3.66 µM [rising, partial curve].

For the compound `COc1ccc(Cn2c(O)c(C=Nc3ccc(OC)cc3)c3ccccc3c2=O)cc1`, the half-maximal activity concentration (AC50) under setting [1] was 0.92 µM [rising, full curve].

As for `Cc1ccc(C(=O)NNC(=O)C2CSC3(C)CCC(=O)N23)cc1` (stereo not given), the cell number change is -9.29%. The concentration at half-maximal activity (AC50) under setting [2] was 6.51 µM [rising, partial curve, poor fit].

Consider `COCCCNC(=O)CCc1c(C)c2cc3c(C)coc3cc2oc1=O`, for which the cell number change is 7.75%. The AC50 under setting [1] is 6.51 µM [rising, single point]. For the same compound, under setting [2], the concentration at half-maximal activity (AC50) is 20.6 µM [falling, single point].

Consider `O=c1c2c([nH]c3ccccc13)CCCC2`, for which the cell number change was -23.7%. In addition, under setting [2], the AC50 was 29.1 µM [falling, partial curve, poor fit].

Turning to `Cc1ccccc1Nc1cc(C(=O)NCc2ccco2)c2ccccc2n1`, the cell number change turned out to be 26.9%. Also, the AC50 under setting [2] was 29.1 µM [rising, single point].

As to `C=CCn1c(SCC(=O)Nc2ccc(-c3nc4ccc(C)cc4s3)cc2)nnc1-c1ccccc1`, the cell number change was -62%. Further, under setting [1], the AC50 was 11.6 µM [falling, partial curve]. The concentration at half-maximal activity (AC50) under setting [2] was 11.6 µM [falling, partial curve].

In the case of `O=S(=O)(NCCC(c1ccc(F)cc1)c1ccco1)c1ccccc1` (stereo not given), the cell number change is -20.7%. The concentration at half-maximal activity (AC50) under setting [2] is 32.6 µM [falling, single point].

As for `CCN(CC)S(=O)(=O)c1ccc(NC(=O)CSc2nnc(-c3ccc(F)cc3)o2)cc1`, the cell number change stood at 9.77%.

With `O=C(CCc1ccccc1)Nc1ccc(Cl)cn1`, the cell number change is -34.5%. Further, under setting [1], the AC50 was 0.0259 µM [falling, full curve, poor fit]. In addition, under setting [2], the AC50 is 32.6 µM [falling, single point].

Take `CC(=O)c1ccc(NC(=S)Nc2cccc3cnccc23)cc1`: the cell number change was -3.91%. In addition, the concentration at half-maximal activity (AC50) under setting [2] was 0.731 µM [falling, single point].

As to `O=S1(=O)CC2SC(=S)N(c3ccccc3)C2C1` (stereo not given), the concentration at half-maximal activity (AC50) under setting [2] was 0.58 µM [rising, single point].

Regarding `COC(=O)c1ccc(NC(=O)CSc2nnc(C)n2CC2CCCO2)cc1` (stereo not given), the cell number change was 15.4%.

Consider `COc1ccc(OC)c(S(=O)(=O)N2C(C)CCCC2C)c1` (stereo not given), for which the cell number change turned out to be 3.42%. Also, the AC50 under setting [2] is 0.00461 µM [falling, full curve, poor fit].

Consider `CCc1ccc2c(CN3CCN(S(=O)(=O)c4ccc5c(c4)OCCO5)CC3)cc(=O)oc2c1`, for which the cell number change is -8.57%.

On to `CCOc1cc(/C=N/N=C(/N)c2nonc2N)cc(Br)c1OCc1ccc(Cl)cc1`, for which the cell number change was -74.3%. Further, under setting [1], the AC50 is 2.59 µM [rising, single point]. In addition, under setting [2], the AC50 is 3.66 µM [rising, partial curve].

As to `C=CCNc1nc(C)c(CNc2c(C)cc(C)cc2C)nc1C#N`, the cell number change was -9.12%. In addition, the AC50 under setting [2] is 29.1 µM [rising, single point].

As for `COc1ccc(CN2CCCC(C(=O)N3CCCCC3)C2)cc1OC` (stereo not given), the cell number change was found to be 17%. In addition, the AC50 under setting [2] was 29.1 µM [rising, single point].

Take `CCOC(=O)c1ccc(-c2c(-c3ccc(OC)cc3)oc(=O)c3cc(OC)c(OC)cc23)cc1F`: the cell number change is -17.5%. In addition, the AC50 under setting [2] is 0.0259 µM [falling, full curve, poor fit].

For the compound `CCN(CC)C(=O)c1ccc(Nc2nnc(-c3ccc(O)cc3)c3ccccc23)cc1`, the cell number change is -18.5%.

On to `O=C1c2ccc(-c3ccc(F)cc3OCc3ccccc3)cc2S(=O)(=O)c2cccc(C(=O)N3CCCC3)c21`, for which the cell number change was -32.3%. The AC50 under setting [1] was 4.11 µM [falling, full curve, poor fit]. In addition, the AC50 under setting [2] was 29.1 µM [falling, single point].

In the case of `CCC(CC)C(=O)N1CC(=O)Nc2ccc(F)cc2C1c1ccc(F)cc1` (stereo not given), the cell number change is -0.898%.

With `Cc1ccc(S(=O)(=O)N2CCN(C(=O)COc3ccc(NC(=O)c4ccco4)cc3)CC2)cc1`, the cell number change worked out at 93.3%. Further, under setting [1], the concentration at half-maximal activity (AC50) is 20.6 µM [rising, single point].

As for `O=C1c2ccccc2NC(c2cccs2)N1O` (stereo not given), the cell number change was found to be 7.47%. Besides, under setting [2], the AC50 is 20.6 µM [rising, single point].

Consider `CC(C)NC(=O)CN1C(=O)CSc2ccc(S(=O)(=O)N3CCCC3)cc21`, for which the cell number change was -11.9%. Also, under setting [2], the AC50 is 0.517 µM [rising, full curve, poor fit].

With `C=CCNc1nc2c(c(=O)n(C)c(=O)n2C)n1Cc1ccc(F)cc1`, the cell number change was -115%. Also, the concentration at half-maximal activity (AC50) under setting [1] was 29.1 µM [falling, single point]. For the same compound, under setting [2], the half-maximal activity concentration (AC50) is 29.1 µM [falling, partial curve].

Take `Cc1cc(Cl)c2oc(C(=O)NC3CCC(O)CC3)c(C)c2c1` (stereo not given): the cell number change was -15.5%.

Take `Cc1ccc(C(=O)Nc2ccc3c(c2)OCO3)o1`: under setting [2], the AC50 was 6.51 µM [falling, single point].

Turning to `Cc1cccc(-n2c(SCC(N)=O)nnc2-c2ccccn2)c1C`, the cell number change is -63.9%. Moreover, the AC50 under setting [1] was 4.11 µM [falling, full curve]. The AC50 under setting [2] is 0.00461 µM [falling, full curve].

For `Cc1ccc(NC(=O)COC(=O)Cc2c(F)cccc2Cl)cc1S(=O)(=O)N1CCOCC1`, the cell number change came to 81.5%. Further, the AC50 under setting [1] was 29.1 µM [rising, single point].

Regarding `CCOc1ccccc1NC(=O)/C(C#N)=C/c1c(C)nn(-c2ccccc2)c1Cl`, the AC50 under setting [2] was 29.1 µM [falling, single point].

Turning to `N/C(Cc1cccc2ccccc12)=N\O`, the cell number change came to 7.43%. For the same compound, the AC50 under setting [2] was 29.1 µM [rising, single point].

On to `Cn1c(=O)cc(SCC(=O)NCC2COc3ccccc3O2)c2ccccc21` (stereo not given), for which the cell number change was -23.5%. Under setting [2], the half-maximal activity concentration (AC50) was 1.64 µM [falling, full curve].

In the case of `COc1ccccc1CNC(=O)C1CCCN(S(=O)(=O)c2cccc3nonc23)C1` (stereo not given), under setting [2], the AC50 was 6.51 µM [rising, single point].

In the case of `O=C1CCc2cc(S(=O)(=O)NC(Cc3ccccc3)C(=O)NC3CCCC3)ccc2N1` (stereo not given), the cell number change came out at 7.21%. The AC50 under setting [1] was 2.59 µM [rising, single point]. For the same compound, under setting [2], the half-maximal activity concentration (AC50) is 6.51 µM [rising, single point].

Regarding `Cc1ccc(C2=NS(=O)(=O)N(C)C(C(=O)Nc3ccc4c(c3)OCO4)=C2)cc1`, the cell number change is 1.44%. Moreover, the AC50 under setting [2] is 20.6 µM [falling, partial curve].

`CC(C)n1nc(C(=O)Nc2nc3ccccc3[nH]2)c2ccccc2c1=O`: the cell number change is 15.5%.

As to `O=C(CN1C(=O)CSC1=O)Nc1ccccc1N1CCOCC1`, the cell number change was determined as 1.43%.

Regarding `CCN(Cc1cc2ccccc2[nH]c1=O)S(=O)(=O)c1ccccc1`, the concentration at half-maximal activity (AC50) under setting [1] was 3.66 µM [rising, single point] and the AC50 under setting [2] was 5.8 µM [rising, single point].

Take `O=C(O)c1ccccc1N1C(=O)C2C3CCC(C3)C2C1=O` (stereo not given): the cell number change was -2.95%.

As to `CC(C)CCCC(C)NS(=O)(=O)Cc1ccccc1` (stereo not given), the cell number change is -37.9%. In addition, the AC50 under setting [1] is 32.6 µM [falling, single point]. In addition, the concentration at half-maximal activity (AC50) under setting [2] is 3.66 µM [rising, single point].

Regarding `COc1ccc(S(=O)(=O)N2CCN(C(=O)COc3ccc(C)c(C)c3)CC2)cc1OC`, the cell number change was 18.5%. The AC50 under setting [1] was 3.26 µM [rising, partial curve].

On to `Clc1ccc(-c2nc3ccccn3c2CN2CCCCC2)cc1`, for which the cell number change was found to be 13.8%. Under setting [1], the concentration at half-maximal activity (AC50) is 4.61 µM [rising, single point].

Turning to `COc1ccc(OC)c(NC(=O)C2CCCN(S(=O)(=O)c3cccc4nonc34)C2)c1` (stereo not given), the cell number change is 73.5%. For the same compound, under setting [1], the half-maximal activity concentration (AC50) is 20.6 µM [rising, single point]. Moreover, under setting [2], the AC50 is 0.092 µM [rising, full curve].

As to `O=C1CCC(C(=O)N2CCCCO2)CN1CCc1ccccc1` (stereo not given), the concentration at half-maximal activity (AC50) under setting [2] is 3.26 µM [falling, partial curve].

As for `CC(C)C(c1nnnn1CC1CCCO1)N1CCN(Cc2ccc3c(c2)OCO3)CC1` (stereo not given), the AC50 under setting [2] was 5.8 µM [falling, partial curve].

As to `CN1CCN(CCCNC(=O)CCc2nnc3n(Cc4ccccc4Cl)c(=O)c4ccccc4n23)CC1`, the cell number change stood at 45.8%. Moreover, the half-maximal activity concentration (AC50) under setting [1] is 29.1 µM [rising, single point].

With `COC(=O)c1ccc(CNC(=O)c2ccc(COc3ccccc3)cc2)cc1`, the cell number change was -32.6%. For the same compound, the AC50 under setting [1] was 0.82 µM [falling, full curve, poor fit]. Besides, the AC50 under setting [2] was 4.61 µM [falling, single point].

As for `O=C(CN1CCN(c2ccccc2)CC1)N/N=C/c1cccc(F)c1`, the cell number change worked out at 12.2%. In addition, under setting [2], the AC50 was 0.116 µM [falling, full curve, poor fit].

Consider `CN1CCN(c2ccc(NC(=O)c3ccc([N+](=O)[O-])o3)cc2Cl)CC1`, for which the cell number change was -3.36%.

As to `COc1ccc(CCNC(=O)CCSc2nc(-c3ccco3)cc(C(F)(F)F)n2)cc1OC`, the cell number change is -32.8%. Moreover, under setting [1], the concentration at half-maximal activity (AC50) was 16.4 µM [falling, single point]. For the same compound, the AC50 under setting [2] was 18.4 µM [falling, single point].

As for `Cc1ccc(NC(=O)CS(=O)CC(=O)NCC2CCCO2)cc1` (stereo not given), the cell number change is -63.8%. Further, the AC50 under setting [1] is 29.1 µM [falling, single point].

As to `N#Cc1ccccc1N=Cc1ccc(Br)cc1`, the AC50 by setting is: under setting [1], 0.651 µM [falling, full curve, poor fit]; under setting [2], 0.0651 µM [rising, full curve, poor fit].

Consider `Clc1ccc2nc(CSc3nnc4ccccn34)cn2c1`, for which the cell number change is -15.9%.

Turning to `CN(C(=O)COc1ccccc1C(=O)NCCc1ccccc1)c1ccccc1`, the concentration at half-maximal activity (AC50) was 0.291 µM [rising, full curve, poor fit] under setting [1] and 16.4 µM [rising, single point] under setting [2].

Regarding `CCN(CC)CCCNC(=O)N[C@@H](Cc1ccccc1)C(=O)O`, the cell number change was 3.94%. The concentration at half-maximal activity (AC50) under setting [2] was 0.146 µM [falling, full curve, poor fit].

Consider `COc1cccc(NC(=O)NC2(C(F)(F)F)Oc3ccccc3O2)c1`, for which the cell number change is -25.4%. The AC50 under setting [2] was 32.6 µM [falling, single point].

On to `CCCCSc1nc(O)c(C2OC(=O)c3c2ccc(OC)c3OC)c(=O)n1C` (stereo not given), for which the cell number change is -50.8%. In addition, under setting [1], the concentration at half-maximal activity (AC50) was 3.66 µM [falling, full curve]. In addition, the AC50 under setting [2] was 29.1 µM [falling, single point].

As for `CCOC(=O)c1ccc(CSc2nnc(N)s2)cc1`, the cell number change is 224%. The AC50 under setting [1] was 20.6 µM [rising, single point]. For the same compound, under setting [2], the AC50 is 6.51 µM [falling, single point].

Broadly, the AC50 is the midpoint of the concentration-response curve, whichever way the signal moves.
